In article PMC5325327:
These are yes or no findings as the source states them, for the method shown. Binding seen in cells or lysates may run through a third protein. Here binding means that the protein was enriched with, or labelled near, the bait; the list need not be complete. Tags and fused reporters may be left off the sequences shown.

Amino acid sequences for entries named in this document (tags omitted). A change or cut given only in a name is not applied to a line headed by its entry.
UniProt P17865: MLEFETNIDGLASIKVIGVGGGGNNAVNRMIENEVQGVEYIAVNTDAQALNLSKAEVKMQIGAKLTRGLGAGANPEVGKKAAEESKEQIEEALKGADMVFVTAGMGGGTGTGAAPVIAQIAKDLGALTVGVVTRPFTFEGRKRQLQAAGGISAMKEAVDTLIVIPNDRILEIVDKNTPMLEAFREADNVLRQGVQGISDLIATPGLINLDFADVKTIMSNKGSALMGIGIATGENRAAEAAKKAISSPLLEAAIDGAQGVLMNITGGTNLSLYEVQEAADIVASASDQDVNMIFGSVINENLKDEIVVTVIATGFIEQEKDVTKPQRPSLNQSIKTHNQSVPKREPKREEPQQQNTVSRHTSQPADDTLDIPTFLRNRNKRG
UniProt P40750: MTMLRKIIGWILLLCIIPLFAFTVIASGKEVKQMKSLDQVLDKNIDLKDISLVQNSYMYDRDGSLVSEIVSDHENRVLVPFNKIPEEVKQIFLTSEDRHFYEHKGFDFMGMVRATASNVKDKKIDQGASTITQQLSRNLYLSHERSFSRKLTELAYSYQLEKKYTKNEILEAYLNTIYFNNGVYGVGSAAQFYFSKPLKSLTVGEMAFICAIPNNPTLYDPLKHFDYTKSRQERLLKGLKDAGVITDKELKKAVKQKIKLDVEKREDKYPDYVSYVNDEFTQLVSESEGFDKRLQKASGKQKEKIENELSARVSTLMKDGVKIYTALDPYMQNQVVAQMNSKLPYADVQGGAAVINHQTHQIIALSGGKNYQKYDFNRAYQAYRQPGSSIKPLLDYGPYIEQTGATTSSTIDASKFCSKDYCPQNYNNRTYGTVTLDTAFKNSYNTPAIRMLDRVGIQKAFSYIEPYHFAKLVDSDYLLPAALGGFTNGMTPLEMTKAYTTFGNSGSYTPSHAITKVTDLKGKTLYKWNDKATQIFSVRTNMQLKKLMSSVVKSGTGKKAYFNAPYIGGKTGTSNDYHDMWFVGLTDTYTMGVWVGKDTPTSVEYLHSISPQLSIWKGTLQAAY
UniProt P17820: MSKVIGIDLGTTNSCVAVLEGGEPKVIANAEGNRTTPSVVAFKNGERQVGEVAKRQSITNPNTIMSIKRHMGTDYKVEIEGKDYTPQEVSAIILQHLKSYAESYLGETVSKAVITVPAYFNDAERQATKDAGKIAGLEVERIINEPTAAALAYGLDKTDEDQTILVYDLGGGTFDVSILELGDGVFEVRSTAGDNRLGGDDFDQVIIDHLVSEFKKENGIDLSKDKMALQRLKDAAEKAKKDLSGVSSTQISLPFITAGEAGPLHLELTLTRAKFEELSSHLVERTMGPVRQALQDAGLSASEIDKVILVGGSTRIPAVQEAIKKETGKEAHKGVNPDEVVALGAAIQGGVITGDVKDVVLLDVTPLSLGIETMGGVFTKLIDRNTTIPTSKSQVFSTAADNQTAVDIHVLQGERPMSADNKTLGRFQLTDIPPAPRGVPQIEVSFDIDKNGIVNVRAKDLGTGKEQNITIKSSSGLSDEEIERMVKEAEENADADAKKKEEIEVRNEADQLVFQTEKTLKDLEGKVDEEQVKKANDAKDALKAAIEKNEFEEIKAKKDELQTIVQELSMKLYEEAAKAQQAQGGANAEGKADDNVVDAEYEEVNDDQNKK
UniProt P37571: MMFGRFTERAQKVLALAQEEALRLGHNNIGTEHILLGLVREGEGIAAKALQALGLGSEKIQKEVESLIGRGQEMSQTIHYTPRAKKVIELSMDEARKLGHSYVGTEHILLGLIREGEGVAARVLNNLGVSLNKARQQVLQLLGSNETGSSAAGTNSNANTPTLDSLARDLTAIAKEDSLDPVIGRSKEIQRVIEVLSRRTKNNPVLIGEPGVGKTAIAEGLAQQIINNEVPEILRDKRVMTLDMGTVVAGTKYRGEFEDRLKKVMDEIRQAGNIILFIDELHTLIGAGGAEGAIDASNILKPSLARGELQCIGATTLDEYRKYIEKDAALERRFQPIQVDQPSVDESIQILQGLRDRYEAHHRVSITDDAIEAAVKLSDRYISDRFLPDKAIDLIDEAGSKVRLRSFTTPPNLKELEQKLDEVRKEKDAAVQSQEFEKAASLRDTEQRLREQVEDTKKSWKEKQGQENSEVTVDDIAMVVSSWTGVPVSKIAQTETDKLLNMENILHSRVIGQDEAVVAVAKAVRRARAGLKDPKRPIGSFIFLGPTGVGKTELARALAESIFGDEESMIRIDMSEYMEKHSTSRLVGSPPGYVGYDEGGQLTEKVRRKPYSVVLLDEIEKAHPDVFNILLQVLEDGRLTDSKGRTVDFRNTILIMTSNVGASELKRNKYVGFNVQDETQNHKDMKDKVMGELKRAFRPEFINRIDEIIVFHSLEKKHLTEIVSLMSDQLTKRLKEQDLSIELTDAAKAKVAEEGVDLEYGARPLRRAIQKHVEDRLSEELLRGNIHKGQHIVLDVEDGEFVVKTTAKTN

T1: Spo0M-FLAG (B. subtilis) (UniProt P71088)
T1 sequence: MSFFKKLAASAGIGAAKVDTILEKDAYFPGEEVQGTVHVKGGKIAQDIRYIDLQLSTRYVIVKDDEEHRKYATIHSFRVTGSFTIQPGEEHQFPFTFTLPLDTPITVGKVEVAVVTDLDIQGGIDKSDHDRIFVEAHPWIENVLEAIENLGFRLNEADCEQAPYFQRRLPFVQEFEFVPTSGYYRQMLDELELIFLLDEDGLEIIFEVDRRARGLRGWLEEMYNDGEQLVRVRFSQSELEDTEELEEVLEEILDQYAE

B1: PepF (enzyme, UniProt O31605 1-670)
chain: MKGTKGKVFRVFTAFLAFVLFITAYDLTKGSEKPEDIHNTSLLRNSCFFNWLESKKTRGITMAEEKKANQLPDRSEVKAEDTWRLEDIFPSDEAWNKEFQAVKELIPNLSKYKGKLADSADHLYEALTYQDKVMERLGRLYTYAHMRSDQDTGNSFYQGLNDKAGNLYTQAASATAYLVPEILSIEEDKLQQFILEKEELKLYSHAIEEITKERPHVLSEKEEALLAEASEVLGSSSNTFSVLNNADITFPSIKDEDGNEKQITHGNFINFLESENREVRKNAFDAVYKTYGQYKNTMATTLSGTVKKDNFYARVKKYKSAREAALSNNSIPEEVYDNLVKTINKHLPLLHRYIALRKKVLELDEVHIYDLYTPLVKDAGMKVTYEEAKDYMLKGLAPLGEEYASILKEGLENRWVDVYENKGKRNGAYSSGAYGTNPYILMNWHNNVNNLFTLVHEFGHSVHSYYTRKHQPYPYGNYSIFVAEVASTTNEALLGEYLLNNLEDEKQRLYILNHMLEGFRGTVFRQTMFAEFEHLIHTKAQEGEPLTPELLTNVYYDLNKKYFGDGMVIDKEIGLEWSRIPHFYYNYYVYQYATGYSAAQALSSQILKEGKPAVDRYIDFLKAGSSQYPIDVLKKAGVDMTSPEPIEAACKMFEEKLDEMEELLMKVKQS
B2: FtsA (protein, UniProt P28264 1-440)
chain: MNNNELYVSLDIGTSNTKVIVGEMTDDSLNIIGVGNVPSEGLKKGSIVDIDETVHSIRKAFDQAERMVGFPLRKAIVGVNGNYINIQDTNGVVAVSSENKEIQVEDVRRVMEAAQVVSVPHEQLIVDVIPKQFIVDGRDEITDPKKMLGVRLEVEGTLITGSKTILHNLLRCVERAGIEITDICLQPLAAGSAALSKDEKNLGVALIDIGGGSTTIAVFQNGHLTSTRVIPLGGENITKDISIGLRTSTEEAERVKKQLGHAYYDEASEDEIFEVTVIGTNQKQTFTQQEAANIIEARVEEILEIVSEELRSMGITDLPGGFVLTGGQAAMPGVMSLAQDVLQNNVRVASPNYIGVRDPQYMTGVGLIQFACRNARIQGRKIGFKMPEEAIQEIAVSSSEEQEQHHHQNEVQQRPKGKQKTQAEHNKQSKMKKLLSMFWE
B3: FtsE (protein, UniProt O34814 1-228)
chain: MIEMKEVYKAYPNGVKALNGISVTIHPGEFVYVVGPSGAGKSTFIKMIYREEKPTKGQILINHKDLATIKEKEIPFVRRKIGVVFQDFKLLPKLTVFENVAFALEVIGEQPSVIKKRVLEVLDLVQLKHKARQFPDQLSGGEQQRVSIARSIVNNPDVVIADEPTGNLDPDTSWEVMKTLEEINNRGTTVVMATHNKEIVNTMKKRVIAIEDGIIVRDESRGEYGSYD
B4: EzrA (protein, UniProt O34894 1-562)
chain: MEFVIGLLIVLLALFAAGYFFRKKIYAEIDRLESWKIEILNRSIVEEMSKIKHLKMTGQTEEFFEKWREEWDEIVTAHMPKVEELLYDAEENADKYRFKKANQVLVHIDDLLTAAESSIEKILREISDLVTSEEKSREEIEQVRERYSKSRKNLLAYSHLYGELYDSLEKDLDEIWSGIKQFEEETEGGNYITARKVLLEQDRNLERLQSYIDDVPKLLADCKQTVPGQIAKLKDGYGEMKEKGYKLEHIQLDKELENLSNQLKRAEHVLMTELDIDEASAILQLIDENIQSVYQQLEGEVEAGQSVLSKMPELIIAYDKLKEEKEHTKAETELVKESYRLTAGELGKQQAFEKRLDEIGKLLSSVKDKLDAEHVAYSLLVEEVASIEKQIEEVKKEHAEYRENLQALRKEELQARETLSNLKKTISETARLLKTSNIPGIPSHIQEMLENAHHHIQETVNQLNELPLNMEEAGAHLKQAEDIVNRASRESEELVEQVILIEKIIQFGNRFRSQNHILSEQLKEAERRFYAFDYDDSYEIAAAAVEKAAPGAVEKIKADISA
B5: trigger factor (protein, UniProt P80698 1-424)
chain: MSVKWEKQEGNEGVLTVEVDAETFKTALDDAFKKVVKQVSIPGFRKGKIPRGLFEQRFGVEALYQDALDILLPVEYPKAVEEAGIEPVDRPEIDVEKIEKGESLIFTAKVTVKPEVKLGEYKGLGIEKDDTTVTDEDVQNELKALQERQAELVVKEEGAVEEGNTVVLDFEGFVDGEAFEGGKAENYSLEVGSGSFIPGFEDQLVGLEAGAEKDVEVTFPEEYHAEDLAGKPAVFKVKIHEIKAKELPELDDEFAKDIDEEVETLAELTEKTKKRLEEAKENEADAKLREELVLKASENAEIDVPQAMVDTELDRMLKEFEQRLQMQGMNLELYTQFSGQDEAALKEQMKEDAEKRVKSNLTLEAIAKAENLEVSDEEVDAELTKMAEAYNMPVENIKQAIGSTDAMKEDLKVRKAIDFLVENR
B6: Spo0A (protein, UniProt P06534 1-267)
chain: MEKIKVCVADDNRELVSLLSEYIEGQEDMEVIGVAYNGQECLSLFKEKDPDVLVLDIIMPHLDGLAVLERLRESDLKKQPNVIMLTAFGQEDVTKKAVDLGASYFILKPFDMENLVGHIRQVSGNASSVTHRAPSSQSSIIRSSQPEPKKKNLDASITSIIHEIGVPAHIKGYLYLREAISMVYNDIELLGSITKVLYPDIAKKFNTTASRVERAIRHAIEVAWSRGNIDSISSLFGYTVSMTKAKPTNSEFIAMVADKLRLEHKAS
B7: PBP1 (enzyme, UniProt P39793 1-914)
chain: MSDQFNSREARRKANSKSSPSPKKGKKRKKGGLFKKTLFTLLILFVLGVVGGAVTFAVMVSDAPSLDESKLKTPYSSTIYDKNGKEIAEVGAEKRTYVSIDEIPDVVKEAFIATEDARFYEHHGIDPVRIGGALVANFKDGFGAEGGSTITQQVVKNSLLSHQKTLKRKVQEVWLSIQLERNYSKDEILEMYLNRIYFSPRAYGIGKAAEEFFGVTDLSKLTVEQAATLAGMPQSPTAYNPVKNPDKAEKRRNIVLSLMKKQGFISDSQYNKAKKVAVKDEGVVSQKEYEKASTNKYSAFVEEVMKEIDEKSDVDPSADGLKIYTTLDTKAQDKLDELMDGDTVGFTEGMQGGVTLLDTKNGEVRAIGAGRNQPVGGFNYATQTKAQPGSTIKPILDYGPVIENKKWSTYEQIDDSAYTYSNGKPIRDWDRKYLGPISMRYALAQSRNIPALKAFQAVGKDTAVDFANGLGLGLTKDNVTEAYSIGGFGGNDGVSPLTMAGAYSAFGNNGTYNEPHFVKSIEFNDGTKLDLTPKSKSAMSDYTAFMITDMLKTAVKTGTGQLAQVPGVEVAGKTGTTNFDDNEVKRYNIASGGARDSWFVGYTPQYTAAVWTGMGENEAGKKSLSAEEQKVAKRIFAQLIADVDDGSGSFEKPDSVVEATVEKGSNPAKLAGPNTPSDKKLTEYFVKGTAPSTVSKTYEKEEKEETAKLSGLNVKYDKDNQSLTLSWNYDGDATFAVKQSVDGGSYSEIQNSSAKEAVISGVQPGSVYKFEVTAVSDDGKSTASTSYEVPKAEDDEDKKDQQQTDDEKQDDEKTQDDTQTDDSQKDDGQTDQDQTDDSTNDQDKKQDNTNTNPSDNNNQDQSNDNDNDNSNNQDTSDGDSNSGKNDSTGSDTNKNKTDTSNKTQTNSSSIEKTN
B8: PBP3 (enzyme, UniProt P42971 1-668)
chain: MLKKCILLVFLCVGLIGLIGCSKTDSPEDRMEAFVKQWNDQQFDDMYQSLTKDVKKEISKKDFVNRYKAIYEQAGVKNLKVTAGEVDKDDQDNKTMKHIPYKVSMNTNAGKVSFKNTAVLKLEKTDDEESWNIDWDPSFIFKQLADDKTVQIMSIEPKRGQIYDKNGKGLAVNTDVPEIGIVPGELGDKKEKVIKELAKKLDLTEDDIKKKLDQGWVKDDSFVPLKKVKPDQEKLVSEATSLQGVTRTNVSSRYYPYGEKTAHLTGYVRAITAEELKKKKEGTYSDTSNIGIAGLENVYEDKLRGTTGWKIYVPQTGEVIAEKKAKDGEDLHLTIDIKTQMKLYDELKDDSGAAVALQPKTGETLALVSAPSYDPNGFIFGWSDKEWKKLNKDKNNPFSAKFNKTYAPGSTIKPIAAAIGIKNGTLKADEKKTIKGKEWQKDSSWGGYSVTRVSERLQQVDLENALITSDNIYFAQNALDMGADTFTKGLKTFGFSEDVPYEFPIQKSSIANDKLDSDILLADTGYGQGQMQMSPLHLATAYTPFVDNGDLVKPTLIKKDSQTADVWHKQVVTKEGAADITKGLKGVVEDERGSAYQPVVKGITVAGKTGTAELKTSKDDKDGTENGWFVGYDYENKDLLVAMMIQNVQDRGGSHYVVEKAKKQFQSN
B9: DivIVA (protein, UniProt P71021 1-164)
chain: MPLTPNDIHNKTFTKSFRGYDEDEVNEFLAQVRKDYEIVLRKKTELEAKVNELDERIGHFANIEETLNKSILVAQEAAEDVKRNSQKEAKLIVREAEKNADRIINESLSKSRKIAMEIEELKKQSKVFRTRFQMLIEAQLDLLKNDDWDHLLEYEVDAVFEEKE
B10: FloA (protein, UniProt P54466 1-331)
chain: MDPSTLMILAIVAVAIIVLAVFFTFVPVMLWISALAAGVKISIFTLVGMRLRRVIPNRVVNPLIKAHKAGLNVGTNQLESHYLAGGNVDRVVNALIAAQRANIELTFERCAAIDLAGRDVLEAVQMSVNPKVIETPFIAGVAMDGIEVKAKARITVRANIERLVGGAGEETIVARVGEGIVSTIGSSDNHKKVLENPDMISQTVLGKGLDSGTAFEILSIDIADVDIGKNIGAILQTDQAEADKNIAQAKAEERRAMAVAQEQEMRARVEEMRAKVVEAEAEVPLAMAEALREGNIGVMDYMNIKNIDADTEMRDSFGKLTKDPSDEDRKS
B11: SepF (protein, UniProt O31728 1-151)
chain: MSMKNKLKNFFSMEDEEYEYEYIETERESHEEHEQKEKPAYNGNKPAGKQNVVSLQSVQKSSKVVLSEPRVYAEAQEIADHLKNRRAVVVNLQRIQHDQAKRIVDFLSGTVYAIGGDIQRIGSDIFLCTPDNVDVSGTISELISEDEHQRW

Target: T1, Spo0M-FLAG (B. subtilis)
Assay: affinity purification with mass spectrometry; E. coli BL21-DE3 extract with Spo0M-FLAG mixed with B. subtilis Bs1A1 total protein extract 2 h at 4°C, then anti-FLAG agarose beads 2 h at 4°C; lysis buffer 50 mM HEPES pH 7.4, 2.5 mM EDTA, 150 mM NaCl, 10% glycerol, 1% NP40; bands differing from the empty-vector control cut from the SDS-PAGE gel for mass spectrometry; three biological replicates

binding, binds:
B1
B2
B3
B4
B5
B6
B7
B8
B9
B10
B11

Target: T1, Spo0M-FLAG (B. subtilis)
Assay: as above
Remark: another data set of the same source

binding, binds:
FtsZ (from UniProt P17865 1-382)
PBP4 (from UniProt P40750) (enzyme)
DnaK (from UniProt P17820 1-611)
Hrp kinase (B. subtilis (endogenous in Bs1A1)) (enzyme)
ClpC (from UniProt P37571 1-810)
